Measurements as given in PubChem BioAssay AID1259354 (Paczesny and Yang Labs, IUPUI and University of Michigan, 2018).
Several values for one entry are separate records, joined by “and”; a condition that tells them apart may be missing. Identical values can stand only once. Among all 78,000 compounds or so, about 1,800 (2.3%) were called active. Inconclusive means that the source gave no clear call. Such entries were picked first, then a sample of the others. No stated cut-off is given here; in the data, active means inhibition above about 30%; inconclusive means mostly about 10% to 28%; inactive means weaker than that.

By UniProt entry, the sequences of proteins in these tests, tags left out. Where a name states a change or a piece, a line headed by the entry shows the natural chain unless it says otherwise.
UniProt Q01638: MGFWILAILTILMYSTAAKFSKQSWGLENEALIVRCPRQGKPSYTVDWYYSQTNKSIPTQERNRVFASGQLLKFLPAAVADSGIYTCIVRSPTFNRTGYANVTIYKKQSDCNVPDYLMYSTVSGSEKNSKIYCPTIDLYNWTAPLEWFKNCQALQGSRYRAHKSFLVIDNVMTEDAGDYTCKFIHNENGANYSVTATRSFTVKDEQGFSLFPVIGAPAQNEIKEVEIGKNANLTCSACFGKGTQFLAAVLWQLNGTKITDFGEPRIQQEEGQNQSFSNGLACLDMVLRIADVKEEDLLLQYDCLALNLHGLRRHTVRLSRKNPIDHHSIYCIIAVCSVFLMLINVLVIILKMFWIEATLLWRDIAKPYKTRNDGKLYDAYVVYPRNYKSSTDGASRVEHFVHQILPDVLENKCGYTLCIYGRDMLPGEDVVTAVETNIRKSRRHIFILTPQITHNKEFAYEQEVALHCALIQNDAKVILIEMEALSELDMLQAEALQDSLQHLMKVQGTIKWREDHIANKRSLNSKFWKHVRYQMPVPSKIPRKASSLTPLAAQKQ

biological target: Interleukin-1 receptor-like 1 (Homo sapiens) (UniProt Q01638); assay: blocks human ST2 binding to IL-33, primary screen, biochemical, AlphaLISA (AID 1259354); conditions: AlphaLISA ST2-Fc/biotin-IL-33 interaction, 1 h; at 17 µM, hits give high values

SMILES | inhibition
CCN(C(=O)c1ccc([N+](=O)[O-])cc1)c1ccccc1 | inconclusive: 12%
COc1cc(NC2CCN(Cc3ccccc3)CC2)ncn1 | inconclusive: 20%
COc1ccc(-c2cc(C[C@H]3CNCC[C@H]3CC(=O)NCc3ccccc3)no2)cc1 | inconclusive: 21%
CN(CCCc1cnn(C)c1)S(=O)(=O)NCc1ccccc1 | inconclusive: 17%
CCCCOc1nc(C)nc2c1sc1nc3c(cc12)COC(C)(C)C3 | inconclusive: 10%
C#Cc1ccc(CN2CCN3C(=O)CN(C)C(=O)C3C2)cc1 (stereo unspecified) | inconclusive: 13%
O=C(C1CCN(S(=O)(=O)c2ccccc2)CC1)N1CCCC(C(F)(F)F)C1 (stereo unspecified) | inactive
CCOc1ccccc1C1C(C#N)=C(N)Oc2cc(N)ccc21 (stereo unspecified) | inconclusive: 15%
CC1CCN(CCCNC(=O)CN2C(=O)/C(=C/c3ccccc3F)Sc3ccccc32)CC1 | inconclusive: 22%
Cc1c(Cl)cccc1-n1ncnc1-c1ccc2c(c1)OCO2 | inconclusive: 25%
Cc1ccc(N2C(=O)c3cccnc3C2=O)cc1C | inactive
COc1ccc(Cl)cc1N1C(=O)C2CCCN2C1c1ccc(N(C)C)cc1 (stereo unspecified) | inconclusive: 17%
CCCC(NC(=O)c1csc(C(C)=O)c1)c1ccccc1 (stereo unspecified) | inconclusive: 11%
O=C1CO[C@H]2CN(S(=O)(=O)c3ccccc3)C[C@H]2N1c1ccccc1 | inconclusive: 11%
Cc1cc(Br)ccc1N1C(=O)C2C3C=CC(C3)C2C1=O (stereo unspecified) | inconclusive: 12%
COc1ccccc1CNc1nc(-c2cccnc2)nc2c1CNC2 | inactive
COc1cc2c(C(=O)Nc3ccccn3)cn(CC(C)C)c(=O)c2cc1OC | inconclusive: 22%
CCCCN(C)Cc1c(C)[nH]c2c(C)cccc2c1=O | inactive
O=[N+]([O-])c1ccc(CN2CCCN(S(=O)(=O)c3ccc(Br)s3)CC2)cc1 | inconclusive: 24%
Cc1ccc(C(=O)O/N=C2\C(=O)N(C)c3ccccc32)cc1 | inconclusive: 11%
CCN(CC)Cc1cnc2c(C(=O)Nc3ccc4c(c3)OCCO4)cnn2c1 | inactive
CCOc1ccc(-n2cnc3ccccc32)cc1C(N)=O | inconclusive: 11%
CC(=O)Nc1ccc(C(=O)Nc2ccc(Cl)cc2)cc1 | inconclusive: 15%

SMILES | inhibition
Cc1nnsc1CN(C)C(=O)c1ccccc1NCC(=O)O | inconclusive: 12%
CCOC(C/C(C)=C/CO)C1=C(C)CCCC1(C)C (stereo unspecified) | inconclusive: 11%
COc1ccc(/C=C2\N=C(c3cccc(C)c3)OC2=O)c(OC)c1OC | active: 48%
COc1ccc(C2C(C(=O)N(C)c3cc(Cl)ccc3C)CC(=O)N2c2ccc(OC)cc2)cc1 (stereo unspecified) | inconclusive: 11%
CCn1cnc2cc(NCc3ccc(Cl)cc3)ccc21 | inconclusive: 27% and inconclusive: 13%
O=C(c1ccco1)N1CCN(C(=O)C(Cc2ccccc2)NS(=O)(=O)c2cccs2)CC1 (stereo unspecified) | inconclusive: 18%
CCN(Cc1nc(C(C)C)cs1)CC1CCCN(CCc2cccc(OC)c2)C1 (stereo unspecified) | inconclusive: 20%
C=CCC1c2cccc(C(=O)O)c2C(=O)N1c1cccc(C)c1 (stereo unspecified) | inconclusive: 12%
CCC1=NOC(Cn2c(=O)n(C(CC)CC)c3ncc(C(=O)O)cc32)C1 (stereo unspecified) | inconclusive: 10%
CC1=C[C@@H](CN2CCC(CO)CC2)[C@H](C(C)C)C[C@H]1Cc1nnc(-c2ccccc2)o1 | inconclusive: 16%
O=C(CSc1nc2c(c(=O)n1-c1ccccc1)SCC2)N1CCCc2ccccc21 | inconclusive: 11%
O=C1N=c2ccc(Cl)cc2=C1c1sc(Nc2ccc(Cl)cc2)nc1O | active: 44%
O=C(Nc1c(F)cccc1F)c1coc(=O)c2ccccc12 | inactive
O=C(CSc1nc2c([nH]c3ccccc32)c(=O)n1-c1ccc(Cl)cc1)NCc1ccco1 | inconclusive: 13%
CC(=O)N1CCc2c(nc(-c3cccnc3)nc2NCCn2cccc2)C1 | inactive
COc1cc(NC(=O)CCN2CCN(Cc3ccccc3)CC2)cc(OC)c1 | inconclusive: 14%
COc1ccc(NC(=O)CCC2CCCN(Cc3ccc4cc(F)ccc4n3)C2)c(C)c1 (stereo unspecified) | inconclusive: 20%
CCOC(=O)c1c(NC(=O)c2cc(C(C)C)on2)sc2c1CCCC2 | inconclusive: 14%
CCOC(=O)c1nn(Cc2cccc(OC)c2)c2c1CN(C(=O)c1csc(C(C)C)n1)CC2 | inactive
O=S(=O)(NCc1ccccc1)N1CCN(Cc2ccc3c(c2)OCO3)CC1 | inconclusive: 18%
COc1cc([N+](=O)[O-])ccc1-c1ccc(/C=C2\C(=O)ON=C2c2ccccc2)o1 | active: 34%
O=C1NN(c2ccc(Cl)cc2)C(=O)/C1=C\c1cccc(Br)c1 | inconclusive: 18%
COc1ccc(C2CC(c3ccccc3O)=NN2)cc1OC (stereo unspecified) | inactive
